PubChem BioAssay AID652243 – Drosophila RNAi Screening Center, 2013
Aim: 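Fly genes required for human androgen receptor driven transcription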 (primary screen). Cell system: Drosophila S2R+ cells. Knock-down reagent: long dsRNA against Drosophila genes. Duration: 72 h (48 h, then 24 h hormone). Challenge: synthetic androgen R1881 at 10 nM for 24 h. Measurement: 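Firefly light from an androgen-responsive reporter and Renilla control light per well, raw and unnormalised, for each of two replicates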. Direction: firefly reporter light: higher = more light from androgen-responsive reporter; Renilla control light: higher = more constitutive control signal (cell number, transfection). Hit rule: 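Across duplicate plates, a knock-down whose log firefly/Renilla ratio shifted a set fold down or up from the GFP/LacZ control mean was a hit; the downward cut appears as both 1.5 and 3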. Meaning of the calls: active = hit: reporter lowered or raised; inactive = no hit.
The deposit covers about 24,000 reagents; below is a random part of those that have a named target and a result. In the full data, 246 (1%) are marked active. 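Plates not normalised; calls are printed but the firefly/Renilla ratio behind them is not deposited; fold cut for lowering reported inconsistently.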 The raw values are shown without normalisation. Names joined by + are all predicted targets of the reagent. No sequences are given here. The record does not give: the amount of reagent.

Against Amun [DRSC19847], the values are firefly reporter light, replicate 1 = 4.86e5; firefly reporter light, replicate 2 = 4.72e5; Renilla control light, replicate 1 = 3.15e6; Renilla control light, replicate 2 = 2.95e6; inactive.
After knock-down of Amun [DRSC28058], the record shows firefly reporter light, replicate 1 = 5.88e5; firefly reporter light, replicate 2 = 7.70e5; Renilla control light, replicate 1 = 7.16e5; Renilla control light, replicate 2 = 6.80e5; inactive.
For CG4681 [DRSC04481], the values are firefly reporter light, replicate 1 = 2.43e5; firefly reporter light, replicate 2 = 1.81e5; Renilla control light, replicate 1 = 1.40e6; Renilla control light, replicate 2 = 1.08e6; inactive.
Silencing of CG4681 [DRSC26116] gave: firefly reporter light, replicate 1 = 3.26e5; firefly reporter light, replicate 2 = 2.97e5; Renilla control light, replicate 1 = 7.00e5; Renilla control light, replicate 2 = 6.76e5; inactive.
Depletion of Sgs3 [DRSC11280] gave: firefly reporter light, replicate 1 = 3.09e5; firefly reporter light, replicate 2 = 3.25e5; Renilla control light, replicate 1 = 2.92e6; Renilla control light, replicate 2 = 2.88e6; inactive.
Depletion of Sgs3 [DRSC28210] gave: firefly reporter light, replicate 1 = 1.01e6; firefly reporter light, replicate 2 = 1.34e6; Renilla control light, replicate 1 = 1.99e6; Renilla control light, replicate 2 = 2.14e6; inactive.
Depletion of Sgs3 [DRSC38946] gave: firefly reporter light, replicate 1 = 5.96e5; firefly reporter light, replicate 2 = 4.52e5; Renilla control light, replicate 1 = 1.13e6; Renilla control light, replicate 2 = 1.04e6; inactive.
Silencing of CG32820 + CG17450 + CG32819 [DRSC21803] came out at: firefly reporter light, replicate 1 = 5.11e5; firefly reporter light, replicate 2 = 4.56e5; Renilla control light, replicate 1 = 2.51e6; Renilla control light, replicate 2 = 3.38e6; inactive.
Against CG32820 + CG17450 + CG32819 [DRSC22812], the values are firefly reporter light, replicate 1 = 5.31e5; firefly reporter light, replicate 2 = 9.49e5; Renilla control light, replicate 1 = 9.38e5; Renilla control light, replicate 2 = 1.67e6; inactive.
CG32820 + CG17450 + CG32819 [DRSC27791] scored firefly reporter light, replicate 1 = 3.91e5; firefly reporter light, replicate 2 = 2.75e5; Renilla control light, replicate 1 = 3.43e5; Renilla control light, replicate 2 = 5.61e5; inactive.
Against CG2938 [DRSC18243] the deposit lists firefly reporter light, replicate 1 = 1.18e5; firefly reporter light, replicate 2 = 81184; Renilla control light, replicate 1 = 8.79e5; Renilla control light, replicate 2 = 7.20e5; inactive.
CG2938 [DRSC27919] showed firefly reporter light, replicate 1 = 1.03e6; firefly reporter light, replicate 2 = 7.00e5; Renilla control light, replicate 1 = 2.28e6; Renilla control light, replicate 2 = 1.65e6; inactive.
